# Source: the supplement of paper PMC7666118
# This is one part of the list.
# Molecular target: T1, VKORC1L1 (UniProt Q8N0U8)
# T1 sequence (whole entry): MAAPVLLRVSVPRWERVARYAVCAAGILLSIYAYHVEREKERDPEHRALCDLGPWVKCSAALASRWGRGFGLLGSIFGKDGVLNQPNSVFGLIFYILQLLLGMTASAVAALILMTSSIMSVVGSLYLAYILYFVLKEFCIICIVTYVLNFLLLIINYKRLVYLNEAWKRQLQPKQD
# Assay: dose-dependent thermal stabilisation call (2D-TPP, DLPTP, 10% FDR) (binary (1 = stabilised)); higher = stabilised by the compound
# Conditions: system: HL-60 intact cells; concentration range 0.04-10 µM
# Experimental: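 2D thermal proteome profiling in intact HL-60 cells treated with BRD-3811 (0, 0.04, 0.29, 2, 10 uM) for 90 min at 37 C, then heated 3 min at one of 12 temperatures (42-63.9 C). Soluble protein was quantified by TMT10 MS. The value is the DLPTP call of the paper: dose-dependent thermal stabilisation over all temperatures at 10% FDR (F-test of a dose-response against a flat model); one experiment, one call per tested protein.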
row,Compound,dose-dependent thermal stabilisation call
1,COc1ccc(Cn2ccc3cc(C)c(C(=O)NO)cc32)cc1,inactive: 0
